Measurements reported in the supplement of paper PMC5949888.
Most values lie at the floor of the assay. Slopes are relative: functional sequences can read slightly below zero.

Tested on: Saccharomyces cerevisiae PS128 hsf1 delta, HSF1(1-493) fusion
Assay: growth estimate (transactivation domain function in HSF1 fusion, heat-shock survival) (a.u. (slope of normalised read count over time)); higher = stronger growth at 37°C, i.e. more transactivation activity
Settings: library: random library

Row | Substance | growth estimate
1 | RQIKGWDEMRAFVCMRVCFP | < -0.25
2 | AYEGNEASPGCYVIVLPDKR | < -0.25
3 | KFRVVLLLLFDGLRKPRRSK | < -0.25
4 | NPSTTLSEWHVGRGPMGVSF | < -0.25
5 | RLSAQHVSHVKTDGSSLGIN | < -0.25
6 | CVVVRSGNQSS | < -0.25
7 | RSRGWPVKPATALCVRS | < -0.25
8 | RGVDSLPDGSKGCQAQASGC | < -0.25
9 | SRVTEVGGPFWGLAWSARML | < -0.25
10 | VRHV | < -0.25
11 | IGNMGLVVLLCCGQLSILRP | < -0.25
12 | ARMVWCYSDGIALD | < -0.25
13 | ERPVLEKVGGKFWSD | < -0.25
14 | PQAEGGGIPRLKTPSSRKFP | < -0.25
15 | TVSVLMANQKPLGLGQSIRS | < -0.25
16 | TRYWVPVKLKEKR | < -0.25
17 | KCLGRLLLRLIEWAHDVLLM | < -0.25
18 | RCDRVDQSRYSG | < -0.25
19 | EGLIGAED | < -0.25
20 | LSRLP | < -0.25
21 | MPPS | < -0.25
22 | YTAVDRLL | < -0.25
23 | NTIGITVGKIRQLAVKAYSR | < -0.25
24 | SRAWDKRAAWLTRLTRWSRS | < -0.25
25 | TVREALMLTCARS | < -0.25

Row | Substance | growth estimate
26 | WGSRAESTC | < -0.25
27 | SRYAFSVKCMTGNCVRKLMS | < -0.25
28 | MASDRAWRDRRQAWIF | -0.141
29 | VRRDRRGHNERSVVELDALE | < -0.25
30 | CMKPVEQGGVCGLQIQELKR | < -0.25
31 | AVGAGAGHAFRHQRSSARSG | < -0.25
32 | NMVTGT | < -0.25
33 | ECTTVDTVSRVIHCCKPAPR | -0.21
34 | CVRQDREYCTS | < -0.25
35 | LPKLSLWDRSFTWLIPWTTV | < -0.25
36 | QWPVDIPHLWLSHPDARSAG | < -0.25
37 | ARFTEHQILHSSCVIS | < -0.25
38 | LMVAARTTLKDARGQSPVVV | < -0.25
39 | YSFLAQQRYRIRCLSRSDSD | < -0.25
40 | SIRHRPSSRVCWSKRGSMLY | < -0.25
41 | QPDRTSRPAQGAAHDSRIRS | < -0.25
42 | VGMEFAHWKRRALGMASVSE | < -0.25
43 | LTDEATQIFRWQS | < -0.25
44 | PPRMFCERENGICRPK | < -0.25
45 | SDTSSQGLCVLAPVLV | < -0.25
46 | SLKVSVIYTYSDDFNASLRN | < -0.25
47 | SAEGQANFY | < -0.25
48 | RVPPKVTVAGGNTFPRLSRS | < -0.25
49 | LRFYLVGSRARLFDRCISPN | < -0.25
50 | WPKLCGRTG | < -0.25

Row | Substance | growth estimate
51 | RNPSNEIYSNIMPCQ | < -0.25
52 | ILSGTKRYGVVGVCRNELAV | < -0.25
53 | PVPIYM | < -0.25
54 | LAVILCAL | < -0.25
55 | IGPERDYVTGNPFAVLLHCH | < -0.25
56 | RATRWGSPYVFE | < -0.25
57 | MSVETPPAGAPAF | < -0.25
58 | RPVVA | < -0.25
59 | FYNQTSSLSHRSCQGVVTRR | < -0.25
60 | DRIKSQVGLWMARRE | < -0.25
61 | INRPNYRL | < -0.25
62 | GFLVFT | < -0.25
63 | VQGCARTTSWTELGPKSRHQ | < -0.25
64 | CDYFQAWRRQSVRNAHRTPL | < -0.25
65 | SGCLKSLPGA | -0.229
66 | DTLVDAVFVRLRS | < -0.25
67 | LFQ | -0.229
68 | CFLRSGGNGV | < -0.25
69 | LGLD | < -0.25
70 | RIWRRTCWHGSASSGVRLFL | < -0.25
71 | YAHISGEFSYRWNASCAW | < -0.25
72 | RLSVRRIMYTIPSASSYDSH | < -0.25
73 | CGPVGNRETSTYITGLSWAL | < -0.25
74 | AVDAPLGRR | < -0.25
75 | RTSVGLSCLDAVHSLLLVVG | < -0.25

Reformatted: results already given.

| Row | Substance | growth estimate |
| --- | --- | --- |
| 49 | LRFYLVGSRARLFDRCISPN | < -0.25 |
| 50 | WPKLCGRTG | < -0.25 |
| 51 | RNPSNEIYSNIMPCQ | < -0.25 |
| 52 | ILSGTKRYGVVGVCRNELAV | < -0.25 |
| 53 | PVPIYM | < -0.25 |
| 54 | LAVILCAL | < -0.25 |
| 55 | IGPERDYVTGNPFAVLLHCH | < -0.25 |
| 56 | RATRWGSPYVFE | < -0.25 |
| 57 | MSVETPPAGAPAF | < -0.25 |
| 58 | RPVVA | < -0.25 |
| 59 | FYNQTSSLSHRSCQGVVTRR | < -0.25 |
| 60 | DRIKSQVGLWMARRE | < -0.25 |
| 61 | INRPNYRL | < -0.25 |
| 62 | GFLVFT | < -0.25 |
| 63 | VQGCARTTSWTELGPKSRHQ | < -0.25 |
| 64 | CDYFQAWRRQSVRNAHRTPL | < -0.25 |
| 65 | SGCLKSLPGA | -0.229 |
| 66 | DTLVDAVFVRLRS | < -0.25 |
| 67 | LFQ | -0.229 |
| 68 | CFLRSGGNGV | < -0.25 |
| 69 | LGLD | < -0.25 |
| 70 | RIWRRTCWHGSASSGVRLFL | < -0.25 |
| 71 | YAHISGEFSYRWNASCAW | < -0.25 |
| 72 | RLSVRRIMYTIPSASSYDSH | < -0.25 |
| 73 | CGPVGNRETSTYITGLSWAL | < -0.25 |
| 74 | AVDAPLGRR | < -0.25 |
| 75 | RTSVGLSCLDAVHSLLLVVG | < -0.25 |

Next records:

Row | Substance | growth estimate
76 | EIVRVGESALTRDEGKLLGT | < -0.25
77 | VIMDCLWRMRYWNRDARSLP | < -0.25
78 | LCRCRTTTTGWA | < -0.25
79 | NRSRSERFGTSTREHQREPP | -0.231
80 | EIVIRFLERAVWLSRPPDGG | < -0.25
81 | RRRVLSRGMERYLPVRTSLY | < -0.25
82 | KVRVRLPSPRGMAPSEARSS | < -0.25
83 | GCQMRGVAITPAGGEVIVFV | < -0.25
84 | PLRMRFSC | < -0.25
85 | SCRNKLASPKGGV | < -0.25
86 | YAFRD | < -0.25
87 | WEPFSFGAQGGALALSENGW | < -0.25
88 | NGTAKVRAGPVTIVVTTTLF | < -0.25
89 | RTWGGIELINVVTNLSRAEL | < -0.25
90 | CCLGVKLTESLVNNAQNVSL | < -0.25
91 | LKVPPGQCEGCRPIKSKQRG | < -0.25
92 | MDTIKMEVVTCDARYSST | < -0.25
93 | QGKCATRHTV | < -0.25
94 | TRVHCNTGRINNISIKARML | < -0.25
95 | VDI | < -0.25
96 | VSCRKSEFAP | < -0.25
97 | SISASFGCI | < -0.25
98 | SNQASNSYPTEVC | < -0.25
